Measured values reported in article PMC7268548, “A missense variant in specificity protein 6 (SP6) is associated with amelogenesis imperfecta”.
The exact form of at least one protein or probe is not confirmed. Weaker means in comparison with the reference protein, sequence or condition of that experiment. Tags and fusion partners may be left off the protein sequences shown.

Biological target: T1, SP6 wild type (Homo sapiens) (UniProt Q3SY56)
T1 sequence (looked up, limits assumed): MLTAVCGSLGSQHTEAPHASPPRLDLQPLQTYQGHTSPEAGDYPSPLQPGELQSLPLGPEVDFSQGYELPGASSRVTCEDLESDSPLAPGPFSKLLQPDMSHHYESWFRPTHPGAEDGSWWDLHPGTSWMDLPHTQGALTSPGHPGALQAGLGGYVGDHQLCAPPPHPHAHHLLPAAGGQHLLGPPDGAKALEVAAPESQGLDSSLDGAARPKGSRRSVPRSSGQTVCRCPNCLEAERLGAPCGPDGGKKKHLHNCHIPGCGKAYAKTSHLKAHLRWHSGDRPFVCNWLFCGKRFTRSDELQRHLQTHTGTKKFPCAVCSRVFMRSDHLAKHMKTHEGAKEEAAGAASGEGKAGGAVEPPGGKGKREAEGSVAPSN
Assay: SPR
Conditions: low signal, Biacore 3000 SPR, 10 mM HEPES pH 7.5, 200 mM NaCl, 0.01% surfactant P-20, 25 C, 40 uL/min, protein 6.25-400 nM, DNA on SA chip, recombinant protein, protein details: N-terminal His-GST, label: 5'-biotin on forward strand

Sequence	binding result (max 29 RU at 400 nM)	binding result (max 16 RU at 400 nM)
CAATCTAGTTTAGCCCCCCGCCCCACCCTCGCTGACCTAA (double strand) [CA3 promoter probe]	binds more weakly	
CCCGCCCACCTCACCGCCCCGCCCCACCCCACCCTGCGGA (double strand) [ROCK1 promoter probe]		binds more weakly
